The other results are listed elsewhere or left out. No stated cut-off is given here; in the data, active = 2 or more and inactive = the rest. Most values lie within the scatter of the assay; repeated measurements hardly agree.
Each compound was assayed on Lgr5 (MarsCy1-Lgr5-EGFP, U2OS) (assay: cell-surface Lgr5 expression (SCi1 fluorescence, background-subtracted) relative to WT DMSO (fold of DMSO control); higher = more Lgr5 at the plasma membrane). Conditions: U2OS MarsCy1-Lgr5-EGFP stable; treatment time: overnight; library: ActiProbe-5K (TimTec); 25 µM.

cell-surface Lgr5 expression, inactive:
CCSC1=NCN(CCCC(=O)O)CN1 1.11, Cc1n[nH]c(S(=O)CC(=O)O)c1[N+](=O)[O-] (centres undefined) 1.61, CCOC(=O)C1=C(C)NC2=C(C(=O)CC(C)(C)C2)C1c1cc(Br)c(C)s1 (centres undefined) 1.43, Oc1ccc(/C=N\Nc2nncn2/N=C\c2ccc(O)c(O)c2)cc1O 1.28, C/C(=N\NC(N)=O)C1CCCCC1 1.39, C(=N/c1ccc(-c2ccc(/N=C/c3cccnc3)cc2)cc1)/c1cccnc1 1.15, CC(C)S(=O)(=O)c1cc2c(cc1[N+](=O)[O-])n(C)c(=O)c(=O)n2C 1.22, Brc1cncc(Br)c1 1.09, CCC1CCc2[nH]c(=S)c(C#N)c(C(F)(F)F)c2C1 (centres undefined) 1.23, Nc1nonc1/C(=N\O)N1CCN(c2ccc(Cl)cc2[N+](=O)[O-])CC1 1.4, Fc1ccccc1/C=N\N1CCN(C2c3ccccc3-c3ccccc32)CC1 1.02, COC(=O)c1cn2c(c1C(=O)OC)CCC2 0.971, c1ccc2c(c1)ccc1nnc(-c3c[nH]c4ccccc34)n12 1.39, Nc1ccc(F)c(F)c1F 1.15, On1nnc2cc(C(F)(F)F)ccc21 1.28, CCN(Cc1nonc1C)C(=O)C(C)n1cc([N+](=O)[O-])cn1 (centres undefined) 1.03, Cc1cc(O)nc(SCc2oc(=O)oc2C)n1 1.16, O=S(=O)(Nc1ccc2c(c1)oc1ccccc12)c1ccc2ccccc2c1 1.08, Nc1nonc1C(=O)N1CCCC1 1.14, O=C(O)c1nn2cc(CCO)cnc2c1Cl 1.45, Cc1sc(NC(=O)CSc2sc3c(=O)[nH]c(=O)[nH]c3c2C#N)c(C#N)c1C 1.32, Cc1ccc(-c2cn3cc(C)ccc3n2)cc1 0.937, O=C(C1=C(O)C(=O)N(CCN2CCOCC2)C1c1cccs1)c1cccs1 (centres undefined) 1.28, Cc1cc(C)c(CSc2ncnc3[nH]cnc23)c(C)c1 1.23, Cc1ccc(/C=C(/C#N)C(N)=S)o1 1.68, Cc1cc2c(c(=S)[nH]1)C(=O)O/C2=C/c1c(C)[nH]c(C#N)c1C 1.6, CC(C)(C)C1CCc2c(sc(NC(=O)C3CCCO3)c2C(N)=O)C1 (centres undefined) 1.63, S=c1sc2c(Cl)ncnc2n1-c1ccccc1 0.357, CCCCCCCCCn1cc[n+](CCCCCCCCC)c1C.[Br-] 0.36, O=[N+]([O-])c1ccc2c(c1)Cc1cc([N+](=O)[O-])ccc1-2 1.09, O=C(CCCC(=O)N/N=C/c1cccs1)N/N=C\c1cccs1 1.08, COC(=O)C1=CN(CC2CCCO2)C=C(C(=O)OC)C1c1cccs1 (centres undefined) 1.01, NCCOc1ccc2oc3ccccc3c2c1 1.37, OC12CCCCC1C(c1ccc3c(c1)OCO3)NCC2 (centres undefined) 1.33, Cn1c(=O)[nH]c2cncc([N+](=O)[O-])c21 1.15, CS(=O)(=O)c1ccc(CN)cc1 1.38, CC1(C(F)(F)F)NC(=O)NC1=O (centres undefined) 0.986, Cc1ccc(/C=N/n2c(S)nnc2-c2ccco2)s1 1.05, CC1=C(C(=O)OC(C)C)C(c2sccc2C)NC(=O)N1 (centres undefined) 1.35, COc1ccc2nc(Sc3nccn3C)sc2c1 1.39, Nc1ccc(Nc2ccc(N)cc2S(=O)(=O)O)cc1 1.2, NCCCc1nc2cc(F)ccc2[nH]1 0.653, O/N=C\c1cc(Br)cs1 0.939, O=C1COc2cc(Cl)ccc2N1 1.11, CC(SCc1n[nH]c(=O)[nH]1)C(=O)Nc1nccs1 (centres undefined) 1.06, CCCSc1nc2[nH]c(=O)cc(O)c2s1 1.22, Nc1ncnc2[nH]c(SCc3nc4ccccc4[nH]3)nc12 1.09, Cc1sc2ccc(O)cc2[n+]1CCCS(=O)(=O)[O-] 1.07, CCC1(C)CCC(C)C(OC)O1 (centres undefined) 1.3, c1(/n(c2cc(OC)ccc2s1)CC)=C(\C#N)C#N 0.888, O=C1NN(c2ccc(Cl)c(Cl)c2)C(=O)/C1=C1\C(=O)Nc2ccc(Br)cc21 0.96, O=S(=O)(NCC1CC2CCC1C2)c1ccc2c(c1)OCCO2 (centres undefined) 1.22, Cn1c(C(c2ccccc2)c2ccccc2)n[nH]c1=S 1.16, C=CCN1C(=O)NOC(N)=C1C#N 0.826, CCCCCC1CC(C/C(C)=N/NC(N)=S)C(=O)O1 (centres undefined) 1.44, O=C(Cn1ccc([N+](=O)[O-])n1)n1cc(Cl)cn1 0.968, CN1c2ccccc2C(C)(C)C12C=Cc1cc(Br)cc(Br)c1O2 (centres undefined) 0.733, CCNc1nc(C#N)nc(N2CCOCC2)n1 1.02, O=[N+]([O-])c1c(-c2cnoc2)n[nH]c1-c1cnoc1 1.04, CC1(C)O[C@@H]2[C@H](O1)[C@@H]1C[C@@H]2NC1=O 1.34, C=CC(=C)CC(NC)c1ccccc1.Cl (centres undefined) 1.16, COc1cc(OC)c2c(C3NC(N)=Nc4nc5ccccc5n43)cn(C)c2c1 (centres undefined) 1.13, CCNC(=S)N1CCOCC1 1.43, Nc1nonc1-c1noc(-c2ccc(Br)cc2)n1 1.16, Cn1cccc1C1(C(F)(F)F)NCCNC1=O (centres undefined) 0.895, COc1ccc(N/N=C2/C(=N)NN=C2N)cc1 0.762, COc1nc(Nc2ccc(OC(F)(F)F)cc2)nc(NC2CC2)n1 1.29, OC(CSCc1ccc(Br)cc1)C(O)CSCc1ccc(Br)cc1 (centres undefined) 0.965, OCCC#CCN1CCCCC1 1.38, CN1CCN(CCCCN)CC1 1.15, CCCc1n[nH]c2c1C1(CCC3(CC1)OCCO3)C(C#N)=C(N)O2 1.18, CC(C)NC(=O)NC(C)(C)COC12CC3CC(CC(C3)C1)C2 1.12, Cn1cccc1/C=N\NC(=O)c1cnccn1 1.09, CC1(C)Nc2ccccc2-c2nnnn21 1.23, CCCCc1sc(/C=C(\C#N)C(N)=S)cc1[N+](=O)[O-] 0.987, c1cnc(SCc2ccc3nsnc3c2)nc1 0.839, Nc1cc(-c2ccco2)[nH]n1 0.871, O=C1OC(c2ccc(Br)cc2)=N/C1=C\c1ccc(Br)o1 1.39, Cc1ccc(/C=C2\CCCC(C)(C)C2=O)o1 1.27, N#CC1=C(N)OC2=C(CNC/C2=C/c2cccs2)C1c1cccs1 (centres undefined) 1.24, O.O=C1Nc2ccc(S(=O)(=O)[O-])cc2C1=O.[Na+] 1.37, Cc1nn(CN2CCCCC2)c(=S)s1 1.02, Cc1sc(N)c(C#N)c1CCC#N 1.08, C#CCn1cc(/C=C2/S/C(=N\C)N(C)C2=O)c2ccccc21 1.9, COc1cc(/C=N\O)cc(OC)c1OC 0.917, Clc1cccc(/N=C\c2cc3ccccc3nc2Cl)c1Cl 1.55, CCOC(=O)N1CCC2(CC1)C(C#N)=C(C)Nc1oc(C)nc12 1.22, O=C(C[n+]1cccc2ccccc21)c1ccc(F)cc1.[Br-] 1.32, O=C(O)c1cnn2c(C(F)(F)F)cc(C3CC3)nc12 0.803, Cc1nn(C)cc1-c1ccno1 1.28, CN(C1CCCCC1)S(=O)(=O)c1cc(Cl)ccc1Cl 1.39, Cn1cnnc1SCC(=O)Nc1sc2c(c1C#N)CCC2 1.14, Cc1cc(C)nc(SCCS(=O)c2ccc(C(C)(C)C)cc2)n1 (centres undefined) 0.933, Cc1ccc(-c2cc(C3(O)CCC4COC3O4)on2)cc1 (centres undefined) 1.08, N/C(CSc1nc(SC/C(N)=N\O)ns1)=N\O 1.01, OCc1nc2cc(-c3ccc4[nH]c(CO)nc4c3)ccc2[nH]1 1.23, Sc1nnc2[nH]c3ccccc3c2n1 0.767, Cn1c(-c2ccco2)nn(CN2CCCCC2)c1=S 1.11, FC(F)(F)c1ccccc1CNCC1CCCO1 (centres undefined) 0.981, Sc1nccn1-c1ccccc1 1.11, OC(c1nc2ccccc2[nH]1)C(O)c1nc2ccccc2[nH]1 (centres undefined) 1.25, CC(C)(C)N1CC(CO)([N+](=O)[O-])C1 1.18, CC(C)(C)C(=O)CSc1ncnc2nc[nH]c12 1.47, O=S1(=O)CC(Br)C(Br)C1 (centres undefined) 1.44, S=c1nc2[nH]c3ccccc3c2n[nH]1 1.18, Cc1ccsc1/C=N/N=C(/N)c1nonc1N 0.927, Nc1cc(Br)cc(Br)c1 0.993, O=C1c2ccccc2C(=O)c2c1cc(S(=O)(=O)[O-])c(O)c2O.[Na+] 0.996, CC1CN(S(=O)(=O)c2ccc3oc4ccccc4c3c2)CC(C)O1 (centres undefined) 1.15
